Assay results reported in paper PMC12541625.

By UniProt entry, the sequences of proteins in these tests, tags left out.
UniProt B2KF05: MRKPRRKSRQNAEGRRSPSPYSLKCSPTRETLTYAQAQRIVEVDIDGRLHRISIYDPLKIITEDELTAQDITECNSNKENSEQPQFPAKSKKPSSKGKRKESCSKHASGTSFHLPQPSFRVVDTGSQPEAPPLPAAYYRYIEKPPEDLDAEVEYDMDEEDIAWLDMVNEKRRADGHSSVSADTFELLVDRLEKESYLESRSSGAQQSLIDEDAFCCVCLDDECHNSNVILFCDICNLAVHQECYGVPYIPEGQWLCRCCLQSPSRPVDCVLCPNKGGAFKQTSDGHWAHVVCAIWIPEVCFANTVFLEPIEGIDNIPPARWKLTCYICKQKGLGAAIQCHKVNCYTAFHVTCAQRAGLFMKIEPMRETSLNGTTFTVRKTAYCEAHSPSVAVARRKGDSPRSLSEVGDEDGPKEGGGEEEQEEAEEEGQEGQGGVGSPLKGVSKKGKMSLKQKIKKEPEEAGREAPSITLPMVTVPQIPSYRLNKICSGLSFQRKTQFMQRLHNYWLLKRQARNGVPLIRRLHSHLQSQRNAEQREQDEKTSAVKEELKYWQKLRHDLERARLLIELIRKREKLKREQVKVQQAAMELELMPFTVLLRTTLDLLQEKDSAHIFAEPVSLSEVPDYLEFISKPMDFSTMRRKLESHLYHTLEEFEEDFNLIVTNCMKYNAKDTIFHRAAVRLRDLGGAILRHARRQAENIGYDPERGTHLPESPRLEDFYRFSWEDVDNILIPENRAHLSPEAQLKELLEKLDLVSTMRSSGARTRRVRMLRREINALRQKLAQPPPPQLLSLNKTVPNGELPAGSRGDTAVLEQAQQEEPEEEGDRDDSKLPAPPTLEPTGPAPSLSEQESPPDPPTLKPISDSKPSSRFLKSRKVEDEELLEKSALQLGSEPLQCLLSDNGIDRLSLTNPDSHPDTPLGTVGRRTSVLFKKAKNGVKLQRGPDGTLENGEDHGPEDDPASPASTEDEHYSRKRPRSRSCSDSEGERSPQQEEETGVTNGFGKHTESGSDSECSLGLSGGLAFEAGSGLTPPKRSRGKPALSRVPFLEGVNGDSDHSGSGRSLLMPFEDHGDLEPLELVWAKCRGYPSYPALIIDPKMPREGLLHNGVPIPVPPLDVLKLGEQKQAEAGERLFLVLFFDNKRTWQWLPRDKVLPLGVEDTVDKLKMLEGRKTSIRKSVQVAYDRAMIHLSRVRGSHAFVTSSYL
UniProt Q5SVQ0: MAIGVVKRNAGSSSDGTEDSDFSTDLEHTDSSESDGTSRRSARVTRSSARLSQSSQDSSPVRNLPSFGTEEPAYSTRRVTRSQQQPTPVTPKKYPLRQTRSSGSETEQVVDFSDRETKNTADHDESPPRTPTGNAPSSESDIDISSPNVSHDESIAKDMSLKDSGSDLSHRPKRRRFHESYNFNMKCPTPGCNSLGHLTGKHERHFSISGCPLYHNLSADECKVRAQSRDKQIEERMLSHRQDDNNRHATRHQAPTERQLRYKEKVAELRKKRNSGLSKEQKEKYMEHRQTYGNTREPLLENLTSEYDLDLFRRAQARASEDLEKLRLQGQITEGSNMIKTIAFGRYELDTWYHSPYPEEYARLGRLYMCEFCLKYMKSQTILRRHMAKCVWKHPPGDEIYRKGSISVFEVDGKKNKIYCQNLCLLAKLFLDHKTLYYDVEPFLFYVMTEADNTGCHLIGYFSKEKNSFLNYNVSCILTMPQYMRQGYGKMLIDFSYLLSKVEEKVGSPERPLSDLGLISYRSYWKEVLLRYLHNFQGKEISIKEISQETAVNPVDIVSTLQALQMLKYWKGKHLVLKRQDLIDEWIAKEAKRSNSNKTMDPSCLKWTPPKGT

Biological target: Flag-tagged full-length BRPF3 (UniProt B2KF05)
Experiment: affinity purification with mass spectrometry; Co-IP / IP of BRPF3 from CFs followed by 4D-FastDIA LC-MS/MS (mass spectrometric) analysis

## KAT7 (in mouse cardiac fibroblasts and mouse heart tissue) (from UniProt Q5SVQ0 1-613) (enzyme)
  binding: binds

No constants are given. Whether binding was seen depends on the method and setting. Binding seen in cells or lysates may run through a third protein. Here binding means that the protein was enriched with, or labelled near, the bait; the list need not be complete.
